Data from PubChem BioAssay AID504444 (National Center for Advancing Translational Sciences (NCATS), 2011).
The whole screen tested about 360,000 compounds, of which about 7,500 (2.1%) were called active. The inconclusive results got no clear call from the source; some entries with a clear call stand among them for comparison. Calls come from the whole dose curve; as a rule, active = well fitted inhibition curve with a large enough effect; inconclusive = small, poorly fitted or top-dose-only effect, or effect the other way; inactive = flat fitted curve, though single readings scatter. Where the call is inconclusive, the potency comes from a doubtful curve fit.

test: Nrf2 qHTS screen for inhibitors; conditions: A549 ARE-Fluc reporter, luciferase luminescence, 18-24 h; activity change, negative = inhibition: at 46 µM (top of the series); note: nearly all actives have a fitted effect of over 60% in size
How it was run: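 Two sequential reads on A549 ARE_Fluc cells exposed to compound for 18-24 h: a CellTiter-Fluor fluorescence read for viability, then a luciferase luminescence read for Nrf2/ARE activity.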
% is set by controls: 0 for no effect and ±100 for the full control effect; potency is the fitted concentration of half-maximal effect.

Structure (SMILES) | Potency | activity change, negative = inhibition
CNc1cnn(-c2ccc(C)cc2)c(=O)c1Cl | inconclusive: 0.58 µM [activator, full curve, poor fit] | 
CN1CCN(CCCNC(=O)c2ccc(/C=C3\Oc4ccccc4N(Cc4ccccc4F)C3=O)cc2)CC1 |  | inactive: -7.47%
O=c1n(Cc2cccc(C(F)(F)F)c2)c2ccccc2c2nc(-c3ccccc3)nn12 |  | inactive: -0.836%
Cc1ccc(CNC(=O)CCCCCn2c(=O)c3sccc3n(CC(=O)N(C)c3ccccc3)c2=O)cc1 |  | inactive: -21%
COc1ccccc1N1CCN(C(=O)c2ccc3c(Cl)c4c(nc3c2)CCCC4)CC1 |  | inactive: 1.48%
COc1ccc(-c2cc3c(=O)n(CC(=O)NCc4cccnc4)ncn3n2)cc1 | inconclusive: 29.1 µM [activator, partial curve, poor fit] | 
CCOC(=O)c1cccc(NC(=O)Cn2ncc3c4ccccc4n(Cc4ccccc4)c3c2=O)c1 |  | inactive: -7.81%
Cc1ccc(C(=O)Nc2ccc3oc(-c4ccc(C(C)(C)C)cc4)nc3c2)cc1 |  | inactive: 11.3%
COc1ccccc1C(=O)NCCCNC(=O)c1cccnc1 | active: 1.84 µM | 
CC1=CC(C)(C)N(C(=O)CSc2nnc(-c3ccccc3)o2)c2ccc(C)cc21 | active: 25.9 µM | 
CN(/N=C/c1ccncc1)c1cnc2ccccc2n1 | inconclusive: 4.11 µM [activator, partial curve] | 
COc1cc(N(C(=O)Cc2cccs2)C(C(=O)NC2CCCCC2)c2cccc(OC)c2OC)ccc1-n1cnnn1 (centres undefined) |  | inactive: -23.2%
Cn1c(=O)[nH]c(=O)c2c1nc(N/N=C/c1cccnc1)n2Cc1ccc(Cl)cc1 | inconclusive: 16.4 µM [falling, single point] | 
Cc1onc(-c2c(Cl)cccc2Cl)c1C(=O)N=S(C)(=O)c1ccccc1 (centres undefined) | inconclusive: 0.461 µM [activator, full curve, poor fit] | 
O=C(CNC(=O)c1cn2ccccc2n1)Nc1ccc(F)c(F)c1 | inconclusive: 23.1 µM [activator, partial curve] | 
COC(=O)C1=NN(C(C)=O)C2(CC(=O)N(c3cc(C)cc(C)c3)C2=O)C1 (centres undefined) | inconclusive: 29.1 µM [activator, single point] | 
CCOC(=O)c1cc2c(C)n(-c3ccc(OCC)cc3)c(C)c2ccc1=O | inconclusive: 29.1 µM [falling, single point] | 
Cc1cc(C)cc(OCCCOc2cccc3cccnc23)c1 | inconclusive: 14.6 µM [falling, single point] | 
COc1ccccc1Nc1cc(C(=O)NC2CCCC2)c2ccccc2n1 | inconclusive: 4.11 µM [activator, single point] | 
Cc1nc2ccccc2n1CC(=O)NCc1ccccc1 | inconclusive: 20.6 µM [falling, partial curve] | 
CC1(C)CCc2cc(S(=O)(=O)N3CCN(S(=O)(=O)c4c(F)cccc4F)CC3)ccc2O1 | inconclusive: 18.4 µM [activator, partial curve] | 
CCC(C)c1ccc(-c2cc(C(=O)OCC(=O)Nc3cc(C)on3)c3ccccc3n2)cc1 (centres undefined) | inconclusive: 1.84 µM [activator, full curve] | 

Structure (SMILES) | Potency | activity change, negative = inhibition
CCn1cc(C(=O)NCc2ccccc2OC)c(=O)c2cc(S(=O)(=O)N3CCCCC3)ccc21 | inconclusive: 29.1 µM [falling, single point] | 
COCCNC(=O)[C@@]1(Cc2ccccc2)C=C[C@@H](C)N1C(C)=O | inconclusive: 20.6 µM [activator, single point] | 
CC(C)=CC(=O)Nc1ccc(Br)cc1 | inconclusive: 1.16 µM [activator, partial curve] | 
CCn1c(C)nnc1SCC(=O)Nc1ccccc1OC |  | inactive: -2.35%
Fc1ccc(-c2cc3nc4c(c(N5CCOCC5)n3n2)CCCC4)cc1 | inconclusive: 18.4 µM [falling, partial curve, poor fit] | 
COc1ccccc1CN1COc2ccc3c(oc(=O)c4ccccc43)c2C1 | inconclusive: 25.9 µM [activator, single point] | 
CCn1c(SCC(=O)N/N=C/C=C\c2ccccc2[N+](=O)[O-])nnc1-c1ccccc1 | active: 16.4 µM | 
O=[N+]([O-])c1ccc(S(=O)(=O)NCC2CC3CCC2C3)cc1 (centres undefined) | inconclusive: 9.2 µM [falling, partial curve, poor fit] | 
COc1ccc(CNC(=O)CN2CCN(c3ccccc3O)CC2)cc1OC |  | inactive: 10.7%
COc1cc2ccccc2cc1C(=O)Nc1ccc(NC(=O)c2cccs2)cc1 | inconclusive: 14.6 µM [falling, partial curve, poor fit] | 
Cc1ccc(/C(N)=N/OC(=O)CCc2ccccc2)cc1 | inconclusive: 29.1 µM [activator, single point] | 
CCOc1ccc(C2=C(C(C)=O)Sc3nnc(C)n3N2C(C)=O)cc1 | inconclusive: 29.1 µM [falling, single point] | 
O=C(CNCC1CCCO1)Nc1ccc(N2CCCCCC2)cc1 (centres undefined) |  | inactive: 2.41%
Cn1c(=O)n(C)c2cc(CNCc3ccc(F)cc3)ccc21 |  | inactive: -4.86%
O=C1CNC(=S)N1c1nc(-c2ccccc2)cs1 |  | inactive: -0.741%
C/C(=N\NC(=O)C(c1ccccc1)c1ccccc1)c1ccc(O)cc1 | inconclusive: 20.6 µM [falling, single point] | 
COc1cc(/C=C/C(=O)OCC(=O)N2CCC(C)CC2)ccc1OCC#N | inconclusive: 32.6 µM [falling, partial curve, poor fit] | 
Cc1cc(N2C(=O)C(=O)/C(=C(/O)c3ccc(F)cc3)C2c2ccc(F)cc2)no1 (centres undefined) | inconclusive: 14.1 µM [falling, partial curve, poor fit] | 
CSc1nsc(SCC(=O)Nc2ccc(Cl)c(C(=O)O)c2)n1 | inconclusive: 6.51 µM [activator, partial curve, poor fit] | 
Cc1ccc(NC(=O)Cc2ncon2)cc1Cl | inconclusive: 18.4 µM [activator, partial curve] | 
COC(=O)c1ccc(NC(=S)N2CCN(Cc3ccc(Cl)cc3)CC2)cc1 | inconclusive: 18.4 µM [falling, partial curve, poor fit] | 
Cc1ccccc1OC1C(=O)N(Cc2ccc3c(c2)OCO3)C1c1sccc1C (centres undefined) | inconclusive: 16.4 µM [falling, single point] | 

Three compounds out of the list, sorted by molar mass, falling.
Structure (SMILES) | Potency | activity change, negative = inhibition
CCn1cc(C(=O)NCc2ccccc2OC)c(=O)c2cc(S(=O)(=O)N3CCCCC3)ccc21 | inconclusive: 29.1 µM [falling, single point] | 
COc1ccccc1N1CCN(C(=O)c2ccc3c(Cl)c4c(nc3c2)CCCC4)CC1 |  | inactive: 1.48%
O=[N+]([O-])c1ccc(S(=O)(=O)NCC2CC3CCC2C3)cc1 (centres undefined) | inconclusive: 9.2 µM [falling, partial curve, poor fit] | 
